According to publication PMC10987677 (The EMBO Journal, 2024):
Results are given in words; binding and its absence hold for the method and conditions named. Some entries that bind do so weakly or less than the wild type.

The chains behind the UniProt entries cited, without tags or fusion partners. Residues count along the entry.
UniProt Q8NCM8, residues 2-4307: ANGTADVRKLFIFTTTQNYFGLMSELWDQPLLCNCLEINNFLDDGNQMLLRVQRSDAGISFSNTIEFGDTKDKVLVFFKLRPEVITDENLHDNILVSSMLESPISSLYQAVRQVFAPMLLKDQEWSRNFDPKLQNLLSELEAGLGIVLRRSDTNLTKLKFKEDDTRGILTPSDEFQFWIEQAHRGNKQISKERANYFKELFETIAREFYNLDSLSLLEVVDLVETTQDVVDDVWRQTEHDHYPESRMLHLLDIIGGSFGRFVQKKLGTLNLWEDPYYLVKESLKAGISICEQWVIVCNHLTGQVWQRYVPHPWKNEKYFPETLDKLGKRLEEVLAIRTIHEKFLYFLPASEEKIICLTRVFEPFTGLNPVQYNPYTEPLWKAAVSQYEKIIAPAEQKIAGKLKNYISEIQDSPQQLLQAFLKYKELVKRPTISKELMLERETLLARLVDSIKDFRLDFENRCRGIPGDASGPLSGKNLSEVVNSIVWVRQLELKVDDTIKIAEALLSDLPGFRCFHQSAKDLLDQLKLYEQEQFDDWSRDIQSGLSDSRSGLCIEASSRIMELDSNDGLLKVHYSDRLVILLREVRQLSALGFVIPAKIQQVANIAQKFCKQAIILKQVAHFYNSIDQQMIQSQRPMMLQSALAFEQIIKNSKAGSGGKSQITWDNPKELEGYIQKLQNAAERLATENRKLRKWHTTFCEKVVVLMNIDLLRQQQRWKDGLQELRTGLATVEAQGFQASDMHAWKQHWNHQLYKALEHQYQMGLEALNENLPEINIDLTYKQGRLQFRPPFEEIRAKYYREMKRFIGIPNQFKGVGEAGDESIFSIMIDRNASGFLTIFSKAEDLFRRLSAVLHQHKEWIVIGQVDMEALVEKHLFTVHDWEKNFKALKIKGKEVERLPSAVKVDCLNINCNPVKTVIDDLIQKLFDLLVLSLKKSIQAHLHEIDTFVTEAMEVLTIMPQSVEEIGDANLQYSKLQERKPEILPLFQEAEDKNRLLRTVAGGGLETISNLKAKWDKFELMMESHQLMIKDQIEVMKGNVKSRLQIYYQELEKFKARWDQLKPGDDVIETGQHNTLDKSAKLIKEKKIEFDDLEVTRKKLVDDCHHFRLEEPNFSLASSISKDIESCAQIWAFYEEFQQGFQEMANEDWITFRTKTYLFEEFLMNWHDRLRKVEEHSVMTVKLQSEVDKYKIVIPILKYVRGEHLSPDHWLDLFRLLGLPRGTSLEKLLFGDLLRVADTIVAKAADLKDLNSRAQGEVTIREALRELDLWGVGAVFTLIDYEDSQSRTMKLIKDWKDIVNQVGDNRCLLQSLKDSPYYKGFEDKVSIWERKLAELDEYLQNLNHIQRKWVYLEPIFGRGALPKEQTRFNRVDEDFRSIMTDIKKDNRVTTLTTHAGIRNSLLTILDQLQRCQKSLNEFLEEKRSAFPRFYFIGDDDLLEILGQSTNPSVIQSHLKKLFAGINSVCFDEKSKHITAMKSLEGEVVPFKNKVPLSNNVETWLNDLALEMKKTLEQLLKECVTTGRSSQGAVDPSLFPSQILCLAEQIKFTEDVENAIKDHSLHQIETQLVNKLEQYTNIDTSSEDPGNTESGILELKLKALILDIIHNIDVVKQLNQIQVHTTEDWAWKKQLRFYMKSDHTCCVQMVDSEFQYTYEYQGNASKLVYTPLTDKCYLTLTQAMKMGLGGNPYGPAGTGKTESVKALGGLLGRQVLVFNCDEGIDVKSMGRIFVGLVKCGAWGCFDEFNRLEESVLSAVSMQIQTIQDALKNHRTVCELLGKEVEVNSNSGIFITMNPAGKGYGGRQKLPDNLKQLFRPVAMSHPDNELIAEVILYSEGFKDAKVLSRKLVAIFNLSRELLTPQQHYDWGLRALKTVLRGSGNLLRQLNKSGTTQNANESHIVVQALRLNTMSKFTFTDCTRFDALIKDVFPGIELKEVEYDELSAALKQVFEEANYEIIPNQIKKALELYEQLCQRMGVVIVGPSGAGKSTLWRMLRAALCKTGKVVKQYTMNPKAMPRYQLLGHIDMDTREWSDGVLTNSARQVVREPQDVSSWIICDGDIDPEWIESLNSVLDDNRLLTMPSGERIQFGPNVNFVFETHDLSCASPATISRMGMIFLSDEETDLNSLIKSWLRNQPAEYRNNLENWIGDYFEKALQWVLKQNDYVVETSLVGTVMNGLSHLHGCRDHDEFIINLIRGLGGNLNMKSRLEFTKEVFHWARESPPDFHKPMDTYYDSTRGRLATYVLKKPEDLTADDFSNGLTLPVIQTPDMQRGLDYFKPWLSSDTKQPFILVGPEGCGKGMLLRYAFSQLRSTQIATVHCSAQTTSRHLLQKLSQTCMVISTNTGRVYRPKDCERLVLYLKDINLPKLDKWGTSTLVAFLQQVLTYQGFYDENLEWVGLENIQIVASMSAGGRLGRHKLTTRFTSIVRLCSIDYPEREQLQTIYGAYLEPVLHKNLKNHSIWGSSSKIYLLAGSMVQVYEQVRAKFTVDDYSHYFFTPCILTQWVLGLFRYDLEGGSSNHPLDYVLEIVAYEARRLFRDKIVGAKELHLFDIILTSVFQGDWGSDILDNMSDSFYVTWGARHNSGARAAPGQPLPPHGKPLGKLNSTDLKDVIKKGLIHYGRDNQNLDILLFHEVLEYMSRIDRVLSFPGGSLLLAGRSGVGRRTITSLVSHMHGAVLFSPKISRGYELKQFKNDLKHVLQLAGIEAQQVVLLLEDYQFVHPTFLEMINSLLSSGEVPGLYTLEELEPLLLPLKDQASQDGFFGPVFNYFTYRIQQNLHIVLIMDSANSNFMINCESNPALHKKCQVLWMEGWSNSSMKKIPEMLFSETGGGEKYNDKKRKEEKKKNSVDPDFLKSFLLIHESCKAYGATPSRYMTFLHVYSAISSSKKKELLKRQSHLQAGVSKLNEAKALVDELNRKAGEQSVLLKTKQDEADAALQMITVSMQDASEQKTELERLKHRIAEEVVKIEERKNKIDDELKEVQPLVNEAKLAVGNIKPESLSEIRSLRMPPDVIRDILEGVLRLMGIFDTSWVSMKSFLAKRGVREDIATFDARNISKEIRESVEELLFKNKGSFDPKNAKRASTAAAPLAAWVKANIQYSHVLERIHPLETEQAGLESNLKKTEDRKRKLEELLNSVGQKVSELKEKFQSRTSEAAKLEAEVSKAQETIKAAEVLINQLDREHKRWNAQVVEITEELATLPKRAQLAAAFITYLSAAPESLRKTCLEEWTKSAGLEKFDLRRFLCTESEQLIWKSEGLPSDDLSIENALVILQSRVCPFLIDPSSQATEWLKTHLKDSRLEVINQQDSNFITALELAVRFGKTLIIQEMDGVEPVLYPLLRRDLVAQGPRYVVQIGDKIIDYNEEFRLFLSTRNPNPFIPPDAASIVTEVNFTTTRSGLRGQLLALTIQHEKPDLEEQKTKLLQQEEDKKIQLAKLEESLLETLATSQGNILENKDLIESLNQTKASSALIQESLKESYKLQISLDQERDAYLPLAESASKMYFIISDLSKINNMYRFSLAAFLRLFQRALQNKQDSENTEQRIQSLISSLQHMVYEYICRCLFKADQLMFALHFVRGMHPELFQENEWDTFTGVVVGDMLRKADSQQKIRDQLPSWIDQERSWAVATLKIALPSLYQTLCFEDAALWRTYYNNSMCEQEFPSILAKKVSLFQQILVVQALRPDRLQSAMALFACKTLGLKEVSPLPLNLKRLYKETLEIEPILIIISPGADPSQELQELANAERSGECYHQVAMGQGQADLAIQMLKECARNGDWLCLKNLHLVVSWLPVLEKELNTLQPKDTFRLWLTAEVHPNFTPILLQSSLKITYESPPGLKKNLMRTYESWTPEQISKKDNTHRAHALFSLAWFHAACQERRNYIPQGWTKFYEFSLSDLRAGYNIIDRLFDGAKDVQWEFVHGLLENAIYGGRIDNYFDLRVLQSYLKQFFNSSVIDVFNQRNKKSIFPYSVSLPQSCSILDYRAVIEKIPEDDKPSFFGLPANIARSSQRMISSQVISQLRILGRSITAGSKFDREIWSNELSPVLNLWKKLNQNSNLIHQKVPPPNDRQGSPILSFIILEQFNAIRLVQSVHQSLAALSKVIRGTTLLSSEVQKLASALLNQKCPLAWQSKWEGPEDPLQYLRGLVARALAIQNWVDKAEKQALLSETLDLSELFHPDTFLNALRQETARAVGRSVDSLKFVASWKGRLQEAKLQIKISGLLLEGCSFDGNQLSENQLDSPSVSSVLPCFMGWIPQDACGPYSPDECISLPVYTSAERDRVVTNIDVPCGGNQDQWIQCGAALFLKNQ
UniProt Q96EX3: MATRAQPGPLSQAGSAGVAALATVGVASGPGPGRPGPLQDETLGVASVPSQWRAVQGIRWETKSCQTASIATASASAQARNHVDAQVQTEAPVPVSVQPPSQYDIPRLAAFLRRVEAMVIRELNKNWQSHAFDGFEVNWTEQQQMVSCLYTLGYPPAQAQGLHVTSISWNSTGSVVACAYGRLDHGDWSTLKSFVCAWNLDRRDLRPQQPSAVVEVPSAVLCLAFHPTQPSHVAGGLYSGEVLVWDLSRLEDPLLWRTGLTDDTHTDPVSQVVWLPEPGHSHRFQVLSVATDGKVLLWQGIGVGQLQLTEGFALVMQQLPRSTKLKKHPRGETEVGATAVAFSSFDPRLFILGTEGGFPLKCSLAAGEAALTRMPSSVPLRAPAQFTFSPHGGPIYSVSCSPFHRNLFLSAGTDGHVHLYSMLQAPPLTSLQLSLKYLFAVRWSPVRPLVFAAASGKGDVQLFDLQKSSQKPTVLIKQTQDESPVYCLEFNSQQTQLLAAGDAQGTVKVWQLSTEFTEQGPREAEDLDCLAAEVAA
UniProt Q8WVS4: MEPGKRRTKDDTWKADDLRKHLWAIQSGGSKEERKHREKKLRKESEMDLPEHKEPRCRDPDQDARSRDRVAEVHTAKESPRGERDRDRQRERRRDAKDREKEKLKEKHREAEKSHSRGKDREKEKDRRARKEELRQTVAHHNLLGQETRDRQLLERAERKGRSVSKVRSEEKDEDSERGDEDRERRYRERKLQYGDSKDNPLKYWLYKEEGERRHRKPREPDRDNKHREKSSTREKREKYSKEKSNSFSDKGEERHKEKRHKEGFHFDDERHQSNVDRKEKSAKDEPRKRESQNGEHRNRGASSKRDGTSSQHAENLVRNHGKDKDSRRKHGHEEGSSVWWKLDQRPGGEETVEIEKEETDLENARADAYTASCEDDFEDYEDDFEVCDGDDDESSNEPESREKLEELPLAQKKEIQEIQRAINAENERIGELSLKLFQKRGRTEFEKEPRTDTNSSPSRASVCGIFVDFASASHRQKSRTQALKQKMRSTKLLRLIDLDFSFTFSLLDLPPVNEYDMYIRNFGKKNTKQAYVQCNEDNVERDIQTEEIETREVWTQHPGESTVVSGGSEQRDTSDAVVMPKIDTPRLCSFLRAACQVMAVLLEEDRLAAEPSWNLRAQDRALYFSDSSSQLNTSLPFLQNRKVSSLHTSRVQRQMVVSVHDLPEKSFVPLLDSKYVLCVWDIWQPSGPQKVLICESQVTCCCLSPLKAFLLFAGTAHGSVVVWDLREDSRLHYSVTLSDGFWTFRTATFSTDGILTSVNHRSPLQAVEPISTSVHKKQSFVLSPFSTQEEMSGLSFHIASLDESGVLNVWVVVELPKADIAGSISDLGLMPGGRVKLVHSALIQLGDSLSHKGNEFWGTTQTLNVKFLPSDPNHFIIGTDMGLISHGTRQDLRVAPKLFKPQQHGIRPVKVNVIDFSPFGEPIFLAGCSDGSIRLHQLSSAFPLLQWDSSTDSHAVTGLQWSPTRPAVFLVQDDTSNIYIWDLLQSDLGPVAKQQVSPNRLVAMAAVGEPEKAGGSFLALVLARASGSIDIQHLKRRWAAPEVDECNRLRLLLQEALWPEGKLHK

Target: dynein-2 heavy chain (DYNC2H1) (UniProt Q8NCM8)
Experiment: cryo-EM structure; purified dynein-2 complex (eight subunits co-expressed in sf9); consensus map of tail particles at 3.9 Å global resolution, local refinements of WDR34 and WDR60 with DYNC2H1; both purified

binding, binds:
dynein-2 intermediate chain WDR34/DYNC2I2 (from UniProt Q96EX3 1-536), dynein-2 intermediate chain WDR60/DYNC2I1 (from UniProt Q8WVS4 1-1066), dynein-2 heavy chain (DYNC2H1) (from UniProt Q8NCM8 2-4307)
